Values from PubChem BioAssay AID1508597 (Cure First, 2020)
Shown is an unselected part of the about 2,100 reagents, in one setting of the screen. 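Calls flag viability under 80% in either arm, not effects specific to rucaparib; the reference for percent is not stated.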 A reagent listed more than once was tested more than once; the source does not tell the runs apart. Not stated in the record: the 100% reference.

- Test: 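Knock-downs altering ovarian cancer cell survival with or without PARP inhibitor rucaparib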 (primary screen)
- Cell system: human ovarian carcinoma lines grown from tumours: OCI-P5x (papillary serous) and OCI-C5x (clear cell)
- Reagents: siRNA pool against human genes, 1.25 pmol siRNA per well
- Time to read-out: 72 h or 96 h, depending on the cell culture
- Treatment: rucaparib 20 µM (about IC30) or vehicle, present until read-out
- Rucaparib or vehicle: Rucaparib
- Cell line: OCI-P5x (serous)
- Read-out: 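Luminescent ATP-based viability assay read 72 or 96 h after transfection, depending on culture, given as normalised percent viability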
- Reading the numbers: viability, normalised: higher = more viable cells remaining
- Call rule: 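a well counts as a hit if its normalised viability is under 80 percent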
- Calls: active = viability under 80%; inactive = viability 80% or more

target	technical replicate	viability, normalised (%)	Outcome
MTRF1L (mitochondrial translation release factor 1 like)	1	50.5	active
MTRF1L (mitochondrial translation release factor 1 like)	2	44.3	active
MTRF1L (mitochondrial translation release factor 1 like)	3	48.5	active
TXNDC9 (thioredoxin domain containing 9)	1	76.3	active
TXNDC9 (thioredoxin domain containing 9)	2	68.9	active
TXNDC9 (thioredoxin domain containing 9)	3	84.9	inactive
JADE2 (jade family PHD finger 2)	1	29.4	active
JADE2 (jade family PHD finger 2)	2	34.5	active
JADE2 (jade family PHD finger 2)	3	30	active
IFNAR2 (interferon alpha and beta receptor subunit 2)	1	90	inactive
IFNAR2 (interferon alpha and beta receptor subunit 2)	2	88	inactive
IFNAR2 (interferon alpha and beta receptor subunit 2)	3	79.2	active
ALDOA (aldolase, fructose-bisphosphate A)	1	66.5	active
ALDOA (aldolase, fructose-bisphosphate A)	2	64.8	active
ALDOA (aldolase, fructose-bisphosphate A)	3	68.8	active
KMT2B (lysine methyltransferase 2B)	1	54	active
KMT2B (lysine methyltransferase 2B)	2	54.8	active
KMT2B (lysine methyltransferase 2B)	3	59.3	active
PRKD3 (protein kinase D3)	1	65.4	active
PRKD3 (protein kinase D3)	2	55	active
PRKD3 (protein kinase D3)	3	83.1	inactive
KAT6A (lysine acetyltransferase 6A)	1	50	active
KAT6A (lysine acetyltransferase 6A)	2	46.6	active
KAT6A (lysine acetyltransferase 6A)	3	50.7	active
SMARCAD1 (SNF2 related chromatin remodeling ATPase with DExD box 1)	1	48.5	active
SMARCAD1 (SNF2 related chromatin remodeling ATPase with DExD box 1)	2	60.9	active
SMARCAD1 (SNF2 related chromatin remodeling ATPase with DExD box 1)	3	51.3	active
TDRD5 (tudor domain containing 5)	1	60.7	active
TDRD5 (tudor domain containing 5)	2	56.8	active
TDRD5 (tudor domain containing 5)	3	61.5	active
HMGB2 (high mobility group box 2)	1	65.8	active
HMGB2 (high mobility group box 2)	1	111	inactive
HMGB2 (high mobility group box 2)	2	54.6	active
HMGB2 (high mobility group box 2)	2	118	inactive
HMGB2 (high mobility group box 2)	3	113	inactive
HMGB2 (high mobility group box 2)	3	71.2	active
PIWIL2 (piwi like RNA-mediated gene silencing 2)	1	52.4	active
PIWIL2 (piwi like RNA-mediated gene silencing 2)	2	58.5	active
PIWIL2 (piwi like RNA-mediated gene silencing 2)	3	52.7	active
FANCG (FA complementation group G)	1	130	inactive
FANCG (FA complementation group G)	2	130	inactive
FANCG (FA complementation group G)	3	119	inactive
PRKCE (protein kinase C epsilon)	1	126	inactive
PRKCE (protein kinase C epsilon)	2	133	inactive
PRKCE (protein kinase C epsilon)	3	105	inactive
JADE3 (jade family PHD finger 3)	1	54.5	active
JADE3 (jade family PHD finger 3)	2	56	active
JADE3 (jade family PHD finger 3)	3	63.2	active
PCDHB11 (protocadherin beta 11)	1	50.6	active
PCDHB11 (protocadherin beta 11)	2	34.3	active
PCDHB11 (protocadherin beta 11)	3	54.3	active
DDX19A (DEAD-box helicase 19A)	1	89.8	inactive
DDX19A (DEAD-box helicase 19A)	2	96.5	inactive
DDX19A (DEAD-box helicase 19A)	3	87.7	inactive
MAGI2	1	45.2	active
MAGI2	2	70.3	active
MAGI2	3	71.2	active

A portion from the list above, as a working copy:
target	technical replicate	viability, normalised (%)	Outcome
KMT2B (lysine methyltransferase 2B)	1	54	active
KMT2B (lysine methyltransferase 2B)	2	54.8	active
KMT2B (lysine methyltransferase 2B)	3	59.3	active
PRKD3 (protein kinase D3)	1	65.4	active
PRKD3 (protein kinase D3)	2	55	active
PRKD3 (protein kinase D3)	3	83.1	inactive
KAT6A (lysine acetyltransferase 6A)	1	50	active
KAT6A (lysine acetyltransferase 6A)	2	46.6	active
